The source of these data is article PMC8324795.

Amino acid sequences for entries named in this document (tags omitted).
UniProt O75396: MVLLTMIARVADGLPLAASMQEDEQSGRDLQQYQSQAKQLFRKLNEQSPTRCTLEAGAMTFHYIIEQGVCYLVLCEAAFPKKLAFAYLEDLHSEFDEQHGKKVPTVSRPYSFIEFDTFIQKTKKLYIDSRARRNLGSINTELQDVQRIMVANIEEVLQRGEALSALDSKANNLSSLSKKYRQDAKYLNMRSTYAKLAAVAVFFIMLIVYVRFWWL
UniProt P61081: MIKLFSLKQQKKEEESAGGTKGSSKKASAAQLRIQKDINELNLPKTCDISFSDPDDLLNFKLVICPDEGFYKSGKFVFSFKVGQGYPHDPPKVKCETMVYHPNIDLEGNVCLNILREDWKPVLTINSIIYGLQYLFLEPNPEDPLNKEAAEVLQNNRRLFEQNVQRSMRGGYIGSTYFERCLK

Results are given in words; binding and its absence hold for the method and conditions named. In cells and extracts the contact can be indirect. These calls come from enrichment with a bait or labelling near it, and not all partners need be listed. Tags and fused reporters may be left off the sequences shown.

For the assay, the target named is T1, FLAG-tagged FKBP51 (FK506-binding protein 51), expressed in HEK293 cells (UniProt Q13451).
T1 sequence: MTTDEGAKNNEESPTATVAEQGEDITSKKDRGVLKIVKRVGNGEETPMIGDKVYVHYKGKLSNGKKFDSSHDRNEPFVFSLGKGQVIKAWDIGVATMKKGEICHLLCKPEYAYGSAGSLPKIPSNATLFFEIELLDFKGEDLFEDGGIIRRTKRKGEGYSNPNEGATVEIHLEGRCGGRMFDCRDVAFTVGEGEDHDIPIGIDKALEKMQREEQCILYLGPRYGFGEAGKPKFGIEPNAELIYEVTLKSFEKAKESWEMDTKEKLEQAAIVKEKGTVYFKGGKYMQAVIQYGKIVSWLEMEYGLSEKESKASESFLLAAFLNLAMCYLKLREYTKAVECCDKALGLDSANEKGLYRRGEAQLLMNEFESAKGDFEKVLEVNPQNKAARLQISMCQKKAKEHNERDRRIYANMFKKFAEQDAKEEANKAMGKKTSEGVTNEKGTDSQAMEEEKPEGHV
Put plainly: affinity purification with mass spectrometry; HEK cells transfected with FLAG-tagged FKBP51 or FLAG control vector; FLAG IP 48 h after transfection, SDS gel, in-gel trypsin digestion, LC-MS/MS; proteins found in all four replicates counted as interactors.

As for “SEC22B in HEK293 cells (hit of the FKBP51 interactome) (from UniProt O75396 1-215)”, the binding entry was “binds”.
Under “UBC12 in HEK293 cells (hit of the FKBP51 interactome) (from UniProt P61081 1-183)” stands “binds”.
